Measured values taken from the supplement of paper PMC10849652.
This is one part of the list.

Protein sequences, listed by entry. Tags and fused reporters are not part of them. Lines headed by an entry give the natural chain unless they say otherwise; changes in a name come on top.
UniProt P63027, whole entry, looked up: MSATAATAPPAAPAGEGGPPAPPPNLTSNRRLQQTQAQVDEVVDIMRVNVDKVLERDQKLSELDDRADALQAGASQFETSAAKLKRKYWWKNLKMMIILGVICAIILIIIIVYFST
UniProt Q9BZX2: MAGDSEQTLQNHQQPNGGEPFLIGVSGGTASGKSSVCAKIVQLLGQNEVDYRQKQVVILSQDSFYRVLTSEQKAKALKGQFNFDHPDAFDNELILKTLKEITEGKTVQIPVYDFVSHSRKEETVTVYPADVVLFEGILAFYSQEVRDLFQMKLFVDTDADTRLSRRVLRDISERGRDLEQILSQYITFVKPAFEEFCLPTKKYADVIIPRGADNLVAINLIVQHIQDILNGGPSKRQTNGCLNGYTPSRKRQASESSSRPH
UniProt Q9P0L0: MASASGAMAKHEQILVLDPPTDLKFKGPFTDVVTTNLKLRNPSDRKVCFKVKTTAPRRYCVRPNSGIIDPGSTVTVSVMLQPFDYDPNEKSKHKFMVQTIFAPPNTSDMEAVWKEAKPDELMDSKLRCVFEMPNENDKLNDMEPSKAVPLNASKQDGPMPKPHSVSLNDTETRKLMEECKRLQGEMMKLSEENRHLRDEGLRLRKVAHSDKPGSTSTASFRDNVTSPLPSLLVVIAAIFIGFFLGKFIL
UniProt P10746: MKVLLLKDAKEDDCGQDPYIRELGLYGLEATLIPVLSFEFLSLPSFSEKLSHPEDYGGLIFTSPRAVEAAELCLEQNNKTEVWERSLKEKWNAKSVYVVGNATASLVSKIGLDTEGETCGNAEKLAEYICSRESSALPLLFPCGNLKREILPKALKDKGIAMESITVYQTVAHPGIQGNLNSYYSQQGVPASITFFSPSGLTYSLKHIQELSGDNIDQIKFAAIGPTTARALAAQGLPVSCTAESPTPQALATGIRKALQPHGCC
UniProt Q9Y5T5, whole entry, looked up: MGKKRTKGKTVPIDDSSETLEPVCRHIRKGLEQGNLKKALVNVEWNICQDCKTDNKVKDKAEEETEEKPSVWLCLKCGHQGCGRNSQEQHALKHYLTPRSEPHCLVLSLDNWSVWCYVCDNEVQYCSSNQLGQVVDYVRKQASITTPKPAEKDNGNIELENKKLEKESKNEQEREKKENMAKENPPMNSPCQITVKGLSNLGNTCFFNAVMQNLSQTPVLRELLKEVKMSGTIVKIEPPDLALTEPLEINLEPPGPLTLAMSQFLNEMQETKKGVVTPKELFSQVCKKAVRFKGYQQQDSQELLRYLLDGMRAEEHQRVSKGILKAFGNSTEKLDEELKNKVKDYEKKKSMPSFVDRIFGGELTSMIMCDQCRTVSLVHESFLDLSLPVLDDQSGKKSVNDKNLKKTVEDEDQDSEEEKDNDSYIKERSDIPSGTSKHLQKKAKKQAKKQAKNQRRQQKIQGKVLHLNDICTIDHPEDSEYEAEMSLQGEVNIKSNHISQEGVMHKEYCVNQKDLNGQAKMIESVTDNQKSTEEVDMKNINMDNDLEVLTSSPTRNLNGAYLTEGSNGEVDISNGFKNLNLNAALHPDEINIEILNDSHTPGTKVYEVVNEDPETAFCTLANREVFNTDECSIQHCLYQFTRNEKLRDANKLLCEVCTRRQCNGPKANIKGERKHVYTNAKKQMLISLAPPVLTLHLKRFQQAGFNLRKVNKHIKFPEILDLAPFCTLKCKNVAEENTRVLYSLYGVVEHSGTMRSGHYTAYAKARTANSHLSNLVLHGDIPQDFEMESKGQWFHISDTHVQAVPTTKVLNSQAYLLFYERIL
UniProt Q9HAU5: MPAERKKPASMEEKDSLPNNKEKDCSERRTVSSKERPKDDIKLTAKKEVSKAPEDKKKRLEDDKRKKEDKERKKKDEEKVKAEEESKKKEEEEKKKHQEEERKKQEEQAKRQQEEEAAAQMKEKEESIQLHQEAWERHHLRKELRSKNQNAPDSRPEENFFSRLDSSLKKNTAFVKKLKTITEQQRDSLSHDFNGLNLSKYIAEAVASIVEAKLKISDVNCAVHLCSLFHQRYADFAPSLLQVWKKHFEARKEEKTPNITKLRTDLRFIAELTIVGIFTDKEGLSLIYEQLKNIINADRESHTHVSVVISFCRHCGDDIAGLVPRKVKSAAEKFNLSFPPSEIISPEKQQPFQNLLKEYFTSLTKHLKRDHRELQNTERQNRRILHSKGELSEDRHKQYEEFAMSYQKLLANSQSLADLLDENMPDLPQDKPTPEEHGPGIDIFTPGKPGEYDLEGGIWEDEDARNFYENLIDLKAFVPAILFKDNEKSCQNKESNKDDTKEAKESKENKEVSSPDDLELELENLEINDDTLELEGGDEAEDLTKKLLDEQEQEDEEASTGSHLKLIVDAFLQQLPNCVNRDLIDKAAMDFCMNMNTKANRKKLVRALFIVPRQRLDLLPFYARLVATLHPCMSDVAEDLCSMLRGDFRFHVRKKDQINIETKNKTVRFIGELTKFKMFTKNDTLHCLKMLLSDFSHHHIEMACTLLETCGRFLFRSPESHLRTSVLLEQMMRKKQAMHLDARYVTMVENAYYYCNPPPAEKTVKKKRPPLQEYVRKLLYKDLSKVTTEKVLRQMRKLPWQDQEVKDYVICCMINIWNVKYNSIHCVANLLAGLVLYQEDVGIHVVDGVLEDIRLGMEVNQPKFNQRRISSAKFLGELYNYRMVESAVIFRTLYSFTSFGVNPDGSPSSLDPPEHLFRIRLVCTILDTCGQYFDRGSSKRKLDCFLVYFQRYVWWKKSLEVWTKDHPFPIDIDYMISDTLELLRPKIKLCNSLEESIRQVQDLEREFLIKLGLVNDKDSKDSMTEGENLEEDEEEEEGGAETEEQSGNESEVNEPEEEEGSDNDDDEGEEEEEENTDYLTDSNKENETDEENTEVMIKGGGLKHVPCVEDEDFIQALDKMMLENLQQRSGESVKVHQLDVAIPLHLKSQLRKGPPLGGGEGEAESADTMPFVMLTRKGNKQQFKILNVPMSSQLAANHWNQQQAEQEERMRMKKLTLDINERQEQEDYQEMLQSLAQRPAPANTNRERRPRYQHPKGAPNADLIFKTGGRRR
UniProt Q9NZ43: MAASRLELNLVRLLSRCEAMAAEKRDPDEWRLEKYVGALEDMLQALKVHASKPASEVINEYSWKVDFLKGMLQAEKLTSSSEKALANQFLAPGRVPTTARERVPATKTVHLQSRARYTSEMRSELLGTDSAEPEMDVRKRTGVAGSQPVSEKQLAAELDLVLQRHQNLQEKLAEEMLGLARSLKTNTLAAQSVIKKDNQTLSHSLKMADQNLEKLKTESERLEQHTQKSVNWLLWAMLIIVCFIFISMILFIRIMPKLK
UniProt Q96S82: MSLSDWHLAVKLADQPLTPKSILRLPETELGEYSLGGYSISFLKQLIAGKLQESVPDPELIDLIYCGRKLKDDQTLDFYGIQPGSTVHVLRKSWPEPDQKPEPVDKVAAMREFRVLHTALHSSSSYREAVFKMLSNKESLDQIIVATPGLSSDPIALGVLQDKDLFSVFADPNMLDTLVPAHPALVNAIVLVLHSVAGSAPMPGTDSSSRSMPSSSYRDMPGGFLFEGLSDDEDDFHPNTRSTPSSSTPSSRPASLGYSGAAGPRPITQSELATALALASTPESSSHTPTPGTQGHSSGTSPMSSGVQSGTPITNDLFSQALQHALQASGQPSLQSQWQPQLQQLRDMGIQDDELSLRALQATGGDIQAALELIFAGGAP
UniProt P06132: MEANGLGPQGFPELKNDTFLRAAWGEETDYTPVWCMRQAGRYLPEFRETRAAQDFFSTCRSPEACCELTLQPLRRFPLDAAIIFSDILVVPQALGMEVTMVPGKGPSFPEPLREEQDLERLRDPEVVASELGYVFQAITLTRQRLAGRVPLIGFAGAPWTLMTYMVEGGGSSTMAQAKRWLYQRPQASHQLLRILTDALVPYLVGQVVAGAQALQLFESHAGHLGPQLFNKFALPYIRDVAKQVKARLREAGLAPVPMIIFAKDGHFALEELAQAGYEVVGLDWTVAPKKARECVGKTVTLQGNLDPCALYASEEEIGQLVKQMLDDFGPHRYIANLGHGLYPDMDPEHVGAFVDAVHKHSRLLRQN
UniProt P47985: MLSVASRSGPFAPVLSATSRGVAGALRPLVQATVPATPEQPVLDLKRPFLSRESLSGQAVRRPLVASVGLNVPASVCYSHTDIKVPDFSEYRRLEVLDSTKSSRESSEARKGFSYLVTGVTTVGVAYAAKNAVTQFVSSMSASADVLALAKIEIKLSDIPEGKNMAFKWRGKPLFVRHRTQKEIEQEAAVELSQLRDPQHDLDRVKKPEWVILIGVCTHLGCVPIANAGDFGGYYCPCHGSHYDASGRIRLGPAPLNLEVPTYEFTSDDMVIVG
UniProt O94763, whole entry, looked up: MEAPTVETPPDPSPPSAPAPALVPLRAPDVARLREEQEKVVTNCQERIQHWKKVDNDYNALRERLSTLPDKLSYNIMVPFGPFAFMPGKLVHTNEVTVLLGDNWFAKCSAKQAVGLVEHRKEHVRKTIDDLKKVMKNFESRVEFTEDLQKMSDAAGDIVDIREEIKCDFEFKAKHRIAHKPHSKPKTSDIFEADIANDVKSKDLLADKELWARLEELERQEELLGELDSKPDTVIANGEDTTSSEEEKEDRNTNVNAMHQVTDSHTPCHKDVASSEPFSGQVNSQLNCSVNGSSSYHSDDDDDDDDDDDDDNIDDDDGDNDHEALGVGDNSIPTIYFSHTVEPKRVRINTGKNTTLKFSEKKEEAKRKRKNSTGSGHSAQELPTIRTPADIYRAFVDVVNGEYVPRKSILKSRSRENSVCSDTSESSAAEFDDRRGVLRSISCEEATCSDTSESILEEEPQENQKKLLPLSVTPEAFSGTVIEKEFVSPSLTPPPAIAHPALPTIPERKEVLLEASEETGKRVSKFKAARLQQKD
UniProt Q14694, whole entry, looked up: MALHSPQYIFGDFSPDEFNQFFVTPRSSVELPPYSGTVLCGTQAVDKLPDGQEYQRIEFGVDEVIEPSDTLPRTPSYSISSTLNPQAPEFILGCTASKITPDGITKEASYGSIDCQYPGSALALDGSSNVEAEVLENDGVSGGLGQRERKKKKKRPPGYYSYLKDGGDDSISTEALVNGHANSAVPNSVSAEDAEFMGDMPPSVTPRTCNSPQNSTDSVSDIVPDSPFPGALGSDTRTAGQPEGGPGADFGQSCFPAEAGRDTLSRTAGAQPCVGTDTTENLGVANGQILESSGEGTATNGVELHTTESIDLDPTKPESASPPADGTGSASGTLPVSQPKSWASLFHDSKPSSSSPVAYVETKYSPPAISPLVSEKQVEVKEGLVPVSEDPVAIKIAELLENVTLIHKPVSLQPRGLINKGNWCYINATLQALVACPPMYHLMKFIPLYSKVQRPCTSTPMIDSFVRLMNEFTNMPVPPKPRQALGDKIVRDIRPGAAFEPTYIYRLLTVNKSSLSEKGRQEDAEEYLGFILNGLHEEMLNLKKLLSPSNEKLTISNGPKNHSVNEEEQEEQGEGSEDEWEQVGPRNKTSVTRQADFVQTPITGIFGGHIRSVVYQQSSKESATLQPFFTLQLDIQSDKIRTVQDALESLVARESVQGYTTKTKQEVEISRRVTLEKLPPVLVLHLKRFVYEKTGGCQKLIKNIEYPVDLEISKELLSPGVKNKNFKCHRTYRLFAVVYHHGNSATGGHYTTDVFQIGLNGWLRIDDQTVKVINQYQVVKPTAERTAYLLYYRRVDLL
UniProt Q70CQ3: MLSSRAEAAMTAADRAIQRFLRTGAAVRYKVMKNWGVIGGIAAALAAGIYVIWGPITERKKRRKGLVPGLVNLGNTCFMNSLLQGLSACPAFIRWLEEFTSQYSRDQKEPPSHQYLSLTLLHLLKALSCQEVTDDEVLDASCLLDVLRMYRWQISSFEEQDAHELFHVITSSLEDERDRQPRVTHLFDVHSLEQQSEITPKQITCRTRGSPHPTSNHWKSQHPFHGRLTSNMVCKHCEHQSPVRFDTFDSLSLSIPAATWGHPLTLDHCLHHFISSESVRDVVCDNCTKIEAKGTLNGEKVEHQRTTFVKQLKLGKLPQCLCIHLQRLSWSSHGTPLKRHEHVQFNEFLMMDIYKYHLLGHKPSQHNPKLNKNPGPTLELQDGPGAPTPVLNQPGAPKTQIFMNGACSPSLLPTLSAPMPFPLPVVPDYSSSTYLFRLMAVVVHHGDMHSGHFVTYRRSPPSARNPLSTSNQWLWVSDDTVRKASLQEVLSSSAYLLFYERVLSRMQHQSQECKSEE
UniProt O14562: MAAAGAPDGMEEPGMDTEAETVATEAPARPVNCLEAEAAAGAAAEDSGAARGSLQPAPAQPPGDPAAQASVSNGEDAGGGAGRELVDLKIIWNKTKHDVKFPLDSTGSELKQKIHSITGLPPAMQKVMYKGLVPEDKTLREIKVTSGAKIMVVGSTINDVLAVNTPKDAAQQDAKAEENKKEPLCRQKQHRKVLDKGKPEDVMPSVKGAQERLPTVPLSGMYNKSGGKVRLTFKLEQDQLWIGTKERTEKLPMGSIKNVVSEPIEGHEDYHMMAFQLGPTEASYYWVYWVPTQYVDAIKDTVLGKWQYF
UniProt Q9BZL1: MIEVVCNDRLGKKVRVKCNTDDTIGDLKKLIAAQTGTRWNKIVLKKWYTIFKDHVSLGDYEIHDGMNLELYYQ
UniProt O14949: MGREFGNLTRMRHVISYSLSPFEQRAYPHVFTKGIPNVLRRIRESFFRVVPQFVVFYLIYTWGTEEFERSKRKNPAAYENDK

These targets were tested with C1=CC=C2C(=C1)C3=NNC4=CC=CC(=C43)C2=O (assay: log2 fold change, soluble protein after heating vs DMSO (PISA); higher = thermal stabilisation; K562 cells, 10 uM, 30 min; active = over 0.2 and 3.5 SD of the protein, either way, in both replicates (recomputed)).
Summary of the method: (§1)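 Aliquots of K562 cells (2×10^6 cells/mL) treated with 10 μM compound for 30 min were heated for 3 min over 48°C-58°C. After pooling and extraction in PBS with 0.5% NP-40 at 4°C, soluble protein from a 21,000xg, 90 min spin was quantified by TMTpro 16plex LC-MS/MS with channel sums equalised. Thermal stability is expressed against control samples, from duplicates, as a log2 fold change.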

log2 fold change, inactive:
VAMP2 (UniProt P63027) 0.085
UCK2 (UniProt Q9BZX2) 0.002
VAPA (UniProt Q9P0L0) 0.099
UGGT2 (UniProt Q9NYU1) 0.017
UROS (UniProt P10746) 0.002
USP16 (UniProt Q9Y5T5) -0.169
UPF2 (UniProt Q9HAU5) -0.01
USE1 (UniProt Q9NZ43) -0.052
UBL7 (UniProt Q96S82) 0.043
UROD (UniProt P06132) -0.012
UQCRFS1 (UniProt P47985) 0.004
URI1 (UniProt O94763) -0.03
USP10 isoform 2 (UniProt Q14694) -0.057
USP30 (UniProt Q70CQ3) 0.083
UBFD1 (UniProt O14562) 0.02

These targets were tested with C1CCN(C1)C(=O)NC2=CC=CC(=C2)NC3=NC=C(C(=N3)NCCC4=CN=CN4)Br in the same assay as above.
Summary of the method: as §1

log2 fold change, inactive:
UBQLN2 (UniProt Q9UHD9) -0.045
UQCC1 (UniProt Q9NVA1) 0.031
USP1 (UniProt O94782) -0.019
UCK1 (UniProt Q9HA47) -0.011
UCHL3 (UniProt P15374) 0.012
VAC14 (UniProt Q08AM6) -0.007
UTP15 (UniProt Q8TED0) 0.024
VAMP8 (UniProt Q9BV40) 0.02
VASP (UniProt P50552) -0.088
URGCP (UniProt Q8TCY9) 0.077
UBL5 (UniProt Q9BZL1) 0.012
UIMC1 (UniProt Q96RL1) 0.022
USP47 (UniProt Q96K76) -0.05
UNC13D isoform 3 (UniProt Q70J99) -0.133
UNC45A (UniProt Q9H3U1) -0.086
UVRAG (UniProt Q9P2Y5) -0.052
URI1 isoform 4 (UniProt O94763) -0.095
VAMP4 (UniProt O75379) -0.003
UQCRQ (UniProt O14949) 0.027
UBR7 (UniProt Q8N806) -0.011
UPF1 (UniProt Q92900) -0.01
UFC1 (UniProt Q9Y3C8) 0.009
UBE3C (UniProt Q15386) -0.014
UBXN4 (UniProt Q92575) -0.016
VAMP2 (UniProt P63027) -0.201
UCK2 (UniProt Q9BZX2) -0.01
VAPA (UniProt Q9P0L0) -0.007
UGGT2 (UniProt Q9NYU1) 0.081
UROS (UniProt P10746) -0.071
USP16 (UniProt Q9Y5T5) -0.23
UPF2 (UniProt Q9HAU5) -0.007
USE1 (UniProt Q9NZ43) 0.003
UBL7 (UniProt Q96S82) -0.075
UROD (UniProt P06132) 0.004
UQCRFS1 (UniProt P47985) 0.014
URI1 (UniProt O94763) -0.101
USP10 isoform 2 (UniProt Q14694) 0.039
USP30 (UniProt Q70CQ3) 0.013
UBFD1 (UniProt O14562) -0.025

These targets were tested with C1CN(CCC1(CC2=CC=C(C=C2)Cl)N)C3=NC=NC4=C3C=CN4 in the same assay as above.
Summary of the method: as §1

log2 fold change, inactive:
UBQLN2 (UniProt Q9UHD9) 0.008
UQCC1 (UniProt Q9NVA1) 0.03
USP1 (UniProt O94782) 0.006
UCK1 (UniProt Q9HA47) 0.044
UCHL3 (UniProt P15374) 0.006
VAC14 (UniProt Q08AM6) 0.003
UTP15 (UniProt Q8TED0) -0.042
VAMP8 (UniProt Q9BV40) 0.046
VASP (UniProt P50552) -0.174
URGCP (UniProt Q8TCY9) 0.042
UBL5 (UniProt Q9BZL1) -0.009
UIMC1 (UniProt Q96RL1) -0.122
USP47 (UniProt Q96K76) -0.124
UNC13D isoform 3 (UniProt Q70J99) -0.174
UNC45A (UniProt Q9H3U1) -0.138
UVRAG (UniProt Q9P2Y5) -0.034
URI1 isoform 4 (UniProt O94763) -0.003
VAMP4 (UniProt O75379) 0.081
UQCRQ (UniProt O14949) 0.056
UBR7 (UniProt Q8N806) 0.058
UPF1 (UniProt Q92900) -0.021
UFC1 (UniProt Q9Y3C8) 0.038
UBE3C (UniProt Q15386) 0.057
UBXN4 (UniProt Q92575) 0.025
VAMP2 (UniProt P63027) -0.001
UCK2 (UniProt Q9BZX2) -0.029
VAPA (UniProt Q9P0L0) 0.05
UGGT2 (UniProt Q9NYU1) -0.222
UROS (UniProt P10746) 0.011
USP16 (UniProt Q9Y5T5) -0.107
UPF2 (UniProt Q9HAU5) -0.15
USE1 (UniProt Q9NZ43) 0.052
UBL7 (UniProt Q96S82) -0.084
UROD (UniProt P06132) 0.067
UQCRFS1 (UniProt P47985) 0.046
URI1 (UniProt O94763) -0.111
USP10 isoform 2 (UniProt Q14694) -0.013
USP30 (UniProt Q70CQ3) 0.009
UBFD1 (UniProt O14562) -0.037
